According to paper PMC5351672:
Where two headings read alike, the source gives them in different places. Results are given in words; binding and its absence hold for the method and conditions named. In cells and extracts the contact can be indirect. These calls come from enrichment with a bait or labelling near it, and not all partners need be listed. Sequences can lack the tags named with a protein.

Chains of the proteins cited; added tags and fusions are not shown. Lines headed by an entry give the natural chain unless they say otherwise; changes in a name come on top.
UniProt P05556: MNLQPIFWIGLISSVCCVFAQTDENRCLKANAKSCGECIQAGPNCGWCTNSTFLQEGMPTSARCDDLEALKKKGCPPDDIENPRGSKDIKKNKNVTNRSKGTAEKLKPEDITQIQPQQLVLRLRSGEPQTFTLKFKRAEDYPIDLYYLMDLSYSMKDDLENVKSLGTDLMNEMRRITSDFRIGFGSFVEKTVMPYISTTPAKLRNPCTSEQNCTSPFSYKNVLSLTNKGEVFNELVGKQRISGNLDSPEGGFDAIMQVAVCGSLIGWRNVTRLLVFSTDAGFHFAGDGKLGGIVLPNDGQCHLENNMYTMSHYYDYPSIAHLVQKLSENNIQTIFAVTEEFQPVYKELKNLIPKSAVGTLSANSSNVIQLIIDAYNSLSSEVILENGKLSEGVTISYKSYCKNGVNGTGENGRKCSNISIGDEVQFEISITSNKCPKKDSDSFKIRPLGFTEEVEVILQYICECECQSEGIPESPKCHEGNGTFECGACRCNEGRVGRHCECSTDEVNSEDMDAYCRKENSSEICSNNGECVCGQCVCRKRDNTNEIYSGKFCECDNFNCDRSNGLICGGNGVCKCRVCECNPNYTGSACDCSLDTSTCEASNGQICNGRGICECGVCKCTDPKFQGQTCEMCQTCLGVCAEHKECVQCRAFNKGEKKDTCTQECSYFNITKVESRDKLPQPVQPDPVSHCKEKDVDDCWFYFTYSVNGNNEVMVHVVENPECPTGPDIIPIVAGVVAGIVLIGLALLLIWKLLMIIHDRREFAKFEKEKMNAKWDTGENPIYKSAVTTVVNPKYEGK
UniProt P09382: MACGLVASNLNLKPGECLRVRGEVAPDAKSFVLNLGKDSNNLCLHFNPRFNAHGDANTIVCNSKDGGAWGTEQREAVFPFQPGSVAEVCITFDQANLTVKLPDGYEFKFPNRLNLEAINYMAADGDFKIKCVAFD
UniProt P60903: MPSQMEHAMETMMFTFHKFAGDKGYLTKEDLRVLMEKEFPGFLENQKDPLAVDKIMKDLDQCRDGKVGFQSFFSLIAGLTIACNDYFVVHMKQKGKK
UniProt Q07065: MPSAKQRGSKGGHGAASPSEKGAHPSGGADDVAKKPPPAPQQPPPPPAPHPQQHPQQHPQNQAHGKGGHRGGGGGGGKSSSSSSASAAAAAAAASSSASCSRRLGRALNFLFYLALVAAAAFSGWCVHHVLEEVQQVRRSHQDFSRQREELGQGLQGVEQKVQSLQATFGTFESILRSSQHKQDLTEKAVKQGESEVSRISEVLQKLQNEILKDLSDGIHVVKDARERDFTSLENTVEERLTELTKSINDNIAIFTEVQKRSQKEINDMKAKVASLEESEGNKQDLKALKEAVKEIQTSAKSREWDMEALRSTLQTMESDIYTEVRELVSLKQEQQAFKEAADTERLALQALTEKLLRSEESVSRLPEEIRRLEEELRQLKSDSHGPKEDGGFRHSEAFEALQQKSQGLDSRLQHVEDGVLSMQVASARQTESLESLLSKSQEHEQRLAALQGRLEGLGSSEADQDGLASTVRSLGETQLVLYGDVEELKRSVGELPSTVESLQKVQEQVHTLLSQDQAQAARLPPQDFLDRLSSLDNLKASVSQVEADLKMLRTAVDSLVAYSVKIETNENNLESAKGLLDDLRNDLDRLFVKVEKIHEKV
UniProt O14576: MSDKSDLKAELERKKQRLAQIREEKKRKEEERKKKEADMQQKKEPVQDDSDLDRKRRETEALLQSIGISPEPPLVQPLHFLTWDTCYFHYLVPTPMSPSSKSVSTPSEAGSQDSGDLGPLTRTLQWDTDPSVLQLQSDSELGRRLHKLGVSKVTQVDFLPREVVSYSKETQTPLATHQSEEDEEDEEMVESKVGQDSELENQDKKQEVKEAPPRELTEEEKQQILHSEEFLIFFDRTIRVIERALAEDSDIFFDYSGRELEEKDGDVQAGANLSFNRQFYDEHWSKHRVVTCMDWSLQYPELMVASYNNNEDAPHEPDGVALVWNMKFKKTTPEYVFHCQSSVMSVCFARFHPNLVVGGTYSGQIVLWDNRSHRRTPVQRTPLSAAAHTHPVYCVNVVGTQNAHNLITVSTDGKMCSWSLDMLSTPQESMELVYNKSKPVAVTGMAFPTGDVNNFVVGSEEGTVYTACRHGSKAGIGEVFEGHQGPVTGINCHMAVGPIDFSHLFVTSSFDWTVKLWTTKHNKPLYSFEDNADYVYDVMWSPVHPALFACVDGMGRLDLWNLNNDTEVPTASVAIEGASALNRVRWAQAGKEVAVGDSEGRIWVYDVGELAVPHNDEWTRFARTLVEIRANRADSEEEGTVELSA
UniProt P17096: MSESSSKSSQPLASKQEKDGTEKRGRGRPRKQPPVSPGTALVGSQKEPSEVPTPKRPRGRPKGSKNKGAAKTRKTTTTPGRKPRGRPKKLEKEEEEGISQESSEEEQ
UniProt Q09028: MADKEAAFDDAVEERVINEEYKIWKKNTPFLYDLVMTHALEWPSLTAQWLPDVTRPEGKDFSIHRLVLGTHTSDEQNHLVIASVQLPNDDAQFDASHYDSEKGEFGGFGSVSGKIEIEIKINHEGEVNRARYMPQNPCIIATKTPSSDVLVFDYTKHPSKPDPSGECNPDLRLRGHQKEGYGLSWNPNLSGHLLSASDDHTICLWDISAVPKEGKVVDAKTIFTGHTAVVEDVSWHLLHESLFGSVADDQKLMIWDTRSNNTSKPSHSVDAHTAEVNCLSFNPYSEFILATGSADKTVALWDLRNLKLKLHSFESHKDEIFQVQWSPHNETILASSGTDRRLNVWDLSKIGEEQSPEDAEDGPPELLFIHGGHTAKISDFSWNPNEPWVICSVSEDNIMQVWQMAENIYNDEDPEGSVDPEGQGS

T1: calgranulin B-FLAG (UniProt P06702)
T1 sequence: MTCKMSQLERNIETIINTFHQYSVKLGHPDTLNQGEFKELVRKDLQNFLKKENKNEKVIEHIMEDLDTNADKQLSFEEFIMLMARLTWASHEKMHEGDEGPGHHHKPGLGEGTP

B1: flotillin-1 (protein, UniProt O75955 1-427)
chain: MFFTCGPNEAMVVSGFCRSPPVMVAGGRVFVLPCIQQIQRISLNTLTLNVKSEKVYTRHGVPISVTGIAQVKIQGQNKEMLAAACQMFLGKTEAEIAHIALETLEGHQRAIMAHMTVEEIYKDRQKFSEQVFKVASSDLVNMGISVVSYTLKDIHDDQDYLHSLGKARTAQVQKDARIGEAEAKRDAGIREAKAKQEKVSAQYLSEIEMAKAQRDYELKKAAYDIEVNTRRAQADLAYQLQVAKTKQQIEEQRVQVQVVERAQQVAVQEQEIARREKELEARVRKPAEAERYKLERLAEAEKSQLIMQAEAEAASVRMRGEAEAFAIGARARAEAEQMAKKAEAFQLYQEAAQLDMLLEKLPQVAEEISGPLTSANKITLVSSGSGTMGAAKVTGEVLDILTRLPESVERLTGVSISQVNHKPLRTA
B2: CD59 glycoprotein (protein, UniProt P13987 26-102)
chain: LQCYNCPNPTADCKTAVNCSSDFDACLITKAGLQVYNKCWKFEHCNFNDVTTRLRENELTYYCCKKDLCNFNEQLEN

Legend:
calgranulin B-FLAG [1] = target: T1, calgranulin B-FLAG; test: affinity purification with mass spectrometry; whole homogenates of pLenti6-calgranulin B-FLAG- and pLenti6-Con-infected HCT-116 cells on anti-FLAG M2 affinity gel; SDS-PAGE slices, LC-MS/MS; proteins also found in the pLenti6-Con precipitate were removed
calgranulin B-FLAG [2] = target: T1, calgranulin B-FLAG; test: as above; remark: listed apart in the source

Molecule | binding (calgranulin B-FLAG [1]) | binding (calgranulin B-FLAG [2])
ITGA3 (human (endogenous in HCT-116)) | binds | –
ITGB1 (from UniProt P05556 21-798) | binds | –
LGALS1 (from UniProt P09382 1-135) | binds | –
calcium-binding protein A10 (from UniProt P60903 1-97) | binds | –
cytoskeleton-associated protein 4 (from UniProt Q07065 1-602) | binds | –
dynein intermediate chain 1 (from UniProt O14576 1-645) | binds | –
high mobility group AT-hook1 (from UniProt P17096 1-107) | binds | –
retinoblastoma binding protein 4 (from UniProt Q09028 1-425) | binds | –
B1 | – | binds
B2 | – | binds
